Sequences of proteins named here, by UniProt entry; tags and fusion partners are left off.
UniProt O35274: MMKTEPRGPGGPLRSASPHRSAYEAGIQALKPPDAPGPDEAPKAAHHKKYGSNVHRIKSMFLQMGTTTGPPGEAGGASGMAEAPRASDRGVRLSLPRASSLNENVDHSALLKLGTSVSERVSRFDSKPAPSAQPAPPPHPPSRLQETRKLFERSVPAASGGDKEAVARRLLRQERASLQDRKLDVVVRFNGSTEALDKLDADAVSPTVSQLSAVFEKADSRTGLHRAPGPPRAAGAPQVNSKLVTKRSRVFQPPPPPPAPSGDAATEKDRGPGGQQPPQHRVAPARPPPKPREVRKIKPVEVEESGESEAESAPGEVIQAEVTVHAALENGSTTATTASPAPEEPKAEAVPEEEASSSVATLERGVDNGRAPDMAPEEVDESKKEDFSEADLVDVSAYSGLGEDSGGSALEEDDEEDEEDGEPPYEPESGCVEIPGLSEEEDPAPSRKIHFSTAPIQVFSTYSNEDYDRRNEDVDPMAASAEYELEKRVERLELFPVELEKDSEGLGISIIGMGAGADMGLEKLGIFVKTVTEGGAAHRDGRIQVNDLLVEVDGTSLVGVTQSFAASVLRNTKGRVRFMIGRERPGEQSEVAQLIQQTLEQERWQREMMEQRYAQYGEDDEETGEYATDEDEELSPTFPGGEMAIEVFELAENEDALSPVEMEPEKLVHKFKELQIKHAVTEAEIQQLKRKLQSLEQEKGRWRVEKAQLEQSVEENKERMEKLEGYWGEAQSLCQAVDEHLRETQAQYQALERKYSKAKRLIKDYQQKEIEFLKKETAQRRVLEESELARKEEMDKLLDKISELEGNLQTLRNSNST
UniProt P61765: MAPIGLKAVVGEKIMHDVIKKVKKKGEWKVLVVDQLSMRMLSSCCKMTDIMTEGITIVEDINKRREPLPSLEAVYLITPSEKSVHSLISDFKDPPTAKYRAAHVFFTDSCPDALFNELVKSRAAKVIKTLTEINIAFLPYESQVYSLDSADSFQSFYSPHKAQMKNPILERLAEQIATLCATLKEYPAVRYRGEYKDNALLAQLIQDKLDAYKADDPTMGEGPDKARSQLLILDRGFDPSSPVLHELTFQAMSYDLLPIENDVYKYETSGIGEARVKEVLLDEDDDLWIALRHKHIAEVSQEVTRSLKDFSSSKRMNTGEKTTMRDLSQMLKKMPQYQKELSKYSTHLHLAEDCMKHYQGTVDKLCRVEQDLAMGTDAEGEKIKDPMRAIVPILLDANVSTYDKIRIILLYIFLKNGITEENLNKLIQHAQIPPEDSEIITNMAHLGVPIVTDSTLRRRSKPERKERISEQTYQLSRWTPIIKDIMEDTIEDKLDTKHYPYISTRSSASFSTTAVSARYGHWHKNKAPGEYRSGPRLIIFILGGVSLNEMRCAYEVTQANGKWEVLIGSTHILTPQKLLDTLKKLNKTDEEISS

In article doi:10.1101/2023.05.11.540316:

Key:
[1] = molecular target: T1, GFP-DDHD2 (UniProt D3ZJ91); assay: affinity purification with mass spectrometry
T1 sequence: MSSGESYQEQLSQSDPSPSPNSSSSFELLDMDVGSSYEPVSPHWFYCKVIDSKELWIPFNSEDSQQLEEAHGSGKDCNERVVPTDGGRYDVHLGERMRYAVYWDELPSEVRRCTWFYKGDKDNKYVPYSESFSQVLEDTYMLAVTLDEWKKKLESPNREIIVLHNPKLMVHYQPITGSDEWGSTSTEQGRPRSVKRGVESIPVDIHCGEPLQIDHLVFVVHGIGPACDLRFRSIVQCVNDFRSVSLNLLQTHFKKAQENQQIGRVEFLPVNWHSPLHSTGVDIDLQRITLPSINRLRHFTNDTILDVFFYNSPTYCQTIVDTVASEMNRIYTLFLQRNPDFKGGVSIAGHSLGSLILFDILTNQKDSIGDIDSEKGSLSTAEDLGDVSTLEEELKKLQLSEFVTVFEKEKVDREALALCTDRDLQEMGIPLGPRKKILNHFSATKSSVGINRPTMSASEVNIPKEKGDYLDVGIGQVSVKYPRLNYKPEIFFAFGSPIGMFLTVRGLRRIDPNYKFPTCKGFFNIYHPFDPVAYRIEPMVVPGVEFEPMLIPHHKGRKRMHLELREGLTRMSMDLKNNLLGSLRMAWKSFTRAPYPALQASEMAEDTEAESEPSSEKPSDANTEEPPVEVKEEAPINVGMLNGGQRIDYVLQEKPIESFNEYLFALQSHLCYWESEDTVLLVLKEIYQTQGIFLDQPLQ

[2] = molecular target: T1, GFP-DDHD2; assay: affinity purification with mass spectrometry; remark: listed apart in the source

Substance | binding [1] | binding [2]
Ppp1r9b (from UniProt O35274 1-817) | binds | 
Syntaxin-binding protein 1 (STXBP1), endogenous in PC12 cells (from UniProt P61765 1-594) | binds | binds

Read-outs that look alike come from different tables or passages of the source. Results are given in words; binding and its absence hold for the method and conditions named. In cells and extracts the contact can be indirect. Here binding means that the protein was enriched with, or labelled near, the bait; the list need not be complete. Tags and fused reporters may be left off the sequences shown.
